PMC12663635
Results are given in words; binding and its absence hold for the method and conditions named. In cells and extracts the contact can be indirect. Some entries that bind do so weakly or less than the wild type.

By UniProt entry, the sequences of proteins in these tests, tags left out. Residues count along the entry.
UniProt P98161, residues 24-4303: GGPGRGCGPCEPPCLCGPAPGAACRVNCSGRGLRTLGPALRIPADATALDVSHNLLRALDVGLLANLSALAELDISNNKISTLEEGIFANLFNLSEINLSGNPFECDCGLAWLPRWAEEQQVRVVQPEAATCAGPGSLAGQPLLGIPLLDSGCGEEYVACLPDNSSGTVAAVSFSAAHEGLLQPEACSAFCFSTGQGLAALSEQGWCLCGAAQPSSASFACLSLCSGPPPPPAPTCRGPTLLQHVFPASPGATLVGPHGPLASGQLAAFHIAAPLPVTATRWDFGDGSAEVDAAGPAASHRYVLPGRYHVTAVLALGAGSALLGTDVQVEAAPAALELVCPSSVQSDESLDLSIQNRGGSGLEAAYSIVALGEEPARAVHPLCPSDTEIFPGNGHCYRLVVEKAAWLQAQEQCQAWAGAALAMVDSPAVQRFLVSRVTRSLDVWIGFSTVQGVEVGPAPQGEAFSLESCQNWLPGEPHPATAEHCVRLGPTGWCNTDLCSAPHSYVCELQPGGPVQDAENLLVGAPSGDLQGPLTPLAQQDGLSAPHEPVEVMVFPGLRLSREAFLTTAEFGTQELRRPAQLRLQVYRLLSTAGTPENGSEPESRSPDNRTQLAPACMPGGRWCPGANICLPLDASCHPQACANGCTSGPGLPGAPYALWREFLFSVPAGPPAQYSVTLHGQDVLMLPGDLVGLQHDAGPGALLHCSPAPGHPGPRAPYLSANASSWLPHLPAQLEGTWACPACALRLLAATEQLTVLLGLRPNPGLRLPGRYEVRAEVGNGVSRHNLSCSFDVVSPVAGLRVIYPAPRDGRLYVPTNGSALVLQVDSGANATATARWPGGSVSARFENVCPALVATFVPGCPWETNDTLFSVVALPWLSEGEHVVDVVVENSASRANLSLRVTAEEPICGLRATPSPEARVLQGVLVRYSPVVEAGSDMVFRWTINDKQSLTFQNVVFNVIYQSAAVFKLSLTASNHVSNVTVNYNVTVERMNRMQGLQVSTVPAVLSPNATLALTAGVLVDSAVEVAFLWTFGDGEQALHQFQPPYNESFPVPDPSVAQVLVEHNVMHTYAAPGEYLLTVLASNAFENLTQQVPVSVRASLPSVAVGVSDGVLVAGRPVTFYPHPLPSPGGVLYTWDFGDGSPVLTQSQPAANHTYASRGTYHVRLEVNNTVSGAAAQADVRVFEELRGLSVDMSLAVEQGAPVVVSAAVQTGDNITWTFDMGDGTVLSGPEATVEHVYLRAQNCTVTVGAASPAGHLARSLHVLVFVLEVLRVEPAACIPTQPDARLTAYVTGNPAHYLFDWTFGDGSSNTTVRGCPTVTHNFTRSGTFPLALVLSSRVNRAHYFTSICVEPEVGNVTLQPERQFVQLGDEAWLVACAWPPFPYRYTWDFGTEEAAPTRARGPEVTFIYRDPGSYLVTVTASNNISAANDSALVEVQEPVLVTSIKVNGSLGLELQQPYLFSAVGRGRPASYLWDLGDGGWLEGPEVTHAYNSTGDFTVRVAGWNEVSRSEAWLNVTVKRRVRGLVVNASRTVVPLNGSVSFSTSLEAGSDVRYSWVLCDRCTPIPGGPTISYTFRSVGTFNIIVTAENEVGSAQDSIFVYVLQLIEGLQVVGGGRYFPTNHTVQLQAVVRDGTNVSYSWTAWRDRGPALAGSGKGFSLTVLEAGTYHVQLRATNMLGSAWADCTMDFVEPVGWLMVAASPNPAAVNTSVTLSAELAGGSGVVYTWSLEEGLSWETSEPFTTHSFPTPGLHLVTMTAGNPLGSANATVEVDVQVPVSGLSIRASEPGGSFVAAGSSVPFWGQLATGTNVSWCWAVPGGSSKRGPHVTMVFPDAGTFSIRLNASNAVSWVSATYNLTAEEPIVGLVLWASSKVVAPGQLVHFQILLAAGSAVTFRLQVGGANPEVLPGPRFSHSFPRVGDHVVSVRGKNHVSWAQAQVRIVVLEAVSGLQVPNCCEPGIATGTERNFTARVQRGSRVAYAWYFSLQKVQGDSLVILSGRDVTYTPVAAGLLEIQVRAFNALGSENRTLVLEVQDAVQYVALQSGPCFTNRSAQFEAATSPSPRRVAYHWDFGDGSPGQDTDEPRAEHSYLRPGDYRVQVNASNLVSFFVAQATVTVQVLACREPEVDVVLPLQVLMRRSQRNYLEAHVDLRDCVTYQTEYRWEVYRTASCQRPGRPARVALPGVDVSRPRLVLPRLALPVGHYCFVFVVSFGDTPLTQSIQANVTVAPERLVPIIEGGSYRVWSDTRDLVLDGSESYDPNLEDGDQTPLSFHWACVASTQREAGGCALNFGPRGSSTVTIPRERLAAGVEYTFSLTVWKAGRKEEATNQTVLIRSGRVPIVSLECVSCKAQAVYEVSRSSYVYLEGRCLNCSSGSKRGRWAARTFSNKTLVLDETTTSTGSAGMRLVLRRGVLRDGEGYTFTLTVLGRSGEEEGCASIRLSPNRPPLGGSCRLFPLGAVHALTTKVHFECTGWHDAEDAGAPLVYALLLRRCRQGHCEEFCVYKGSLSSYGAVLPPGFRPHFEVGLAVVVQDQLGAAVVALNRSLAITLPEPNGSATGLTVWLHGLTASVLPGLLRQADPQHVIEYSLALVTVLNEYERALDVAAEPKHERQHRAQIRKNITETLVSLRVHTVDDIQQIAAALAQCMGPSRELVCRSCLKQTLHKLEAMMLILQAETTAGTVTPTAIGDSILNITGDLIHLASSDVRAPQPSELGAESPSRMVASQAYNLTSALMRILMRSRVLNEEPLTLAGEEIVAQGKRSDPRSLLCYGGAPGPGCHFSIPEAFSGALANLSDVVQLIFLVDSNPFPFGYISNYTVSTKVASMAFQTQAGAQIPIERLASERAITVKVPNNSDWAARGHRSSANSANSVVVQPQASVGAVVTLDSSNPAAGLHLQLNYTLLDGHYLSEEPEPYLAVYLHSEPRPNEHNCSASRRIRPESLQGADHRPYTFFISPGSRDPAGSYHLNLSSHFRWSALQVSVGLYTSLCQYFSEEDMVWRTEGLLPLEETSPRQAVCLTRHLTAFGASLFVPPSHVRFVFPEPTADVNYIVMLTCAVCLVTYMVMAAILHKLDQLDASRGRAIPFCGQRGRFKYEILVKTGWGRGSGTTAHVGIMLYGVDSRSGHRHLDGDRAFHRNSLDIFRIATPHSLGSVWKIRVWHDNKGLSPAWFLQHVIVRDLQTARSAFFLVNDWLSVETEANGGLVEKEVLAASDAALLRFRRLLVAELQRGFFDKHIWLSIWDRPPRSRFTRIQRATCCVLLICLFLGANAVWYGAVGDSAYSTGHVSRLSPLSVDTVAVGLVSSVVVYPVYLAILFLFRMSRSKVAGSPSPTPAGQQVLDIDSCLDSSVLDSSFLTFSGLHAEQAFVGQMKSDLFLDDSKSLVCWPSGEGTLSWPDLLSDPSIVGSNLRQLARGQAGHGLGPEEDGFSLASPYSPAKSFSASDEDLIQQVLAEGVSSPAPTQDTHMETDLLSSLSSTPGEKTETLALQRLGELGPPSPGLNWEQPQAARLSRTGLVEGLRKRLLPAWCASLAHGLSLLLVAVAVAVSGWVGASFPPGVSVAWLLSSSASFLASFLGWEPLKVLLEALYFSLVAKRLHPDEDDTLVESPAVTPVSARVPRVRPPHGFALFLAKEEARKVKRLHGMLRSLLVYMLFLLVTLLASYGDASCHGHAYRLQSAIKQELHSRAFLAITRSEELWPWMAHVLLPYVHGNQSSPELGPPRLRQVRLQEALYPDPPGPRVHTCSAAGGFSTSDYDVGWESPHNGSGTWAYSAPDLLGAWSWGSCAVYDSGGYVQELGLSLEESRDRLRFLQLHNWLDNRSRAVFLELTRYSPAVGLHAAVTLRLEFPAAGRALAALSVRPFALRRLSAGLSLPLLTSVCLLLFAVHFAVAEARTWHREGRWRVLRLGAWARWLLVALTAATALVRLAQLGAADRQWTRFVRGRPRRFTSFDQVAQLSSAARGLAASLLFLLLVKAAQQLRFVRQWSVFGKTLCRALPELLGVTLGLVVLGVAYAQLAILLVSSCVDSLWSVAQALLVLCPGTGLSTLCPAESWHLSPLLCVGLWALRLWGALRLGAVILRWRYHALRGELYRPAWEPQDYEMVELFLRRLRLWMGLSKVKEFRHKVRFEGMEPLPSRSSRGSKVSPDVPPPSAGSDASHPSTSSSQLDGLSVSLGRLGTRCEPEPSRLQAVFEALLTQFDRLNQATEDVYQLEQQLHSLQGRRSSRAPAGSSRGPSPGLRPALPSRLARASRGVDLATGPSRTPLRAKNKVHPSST
UniProt Q3SXY8: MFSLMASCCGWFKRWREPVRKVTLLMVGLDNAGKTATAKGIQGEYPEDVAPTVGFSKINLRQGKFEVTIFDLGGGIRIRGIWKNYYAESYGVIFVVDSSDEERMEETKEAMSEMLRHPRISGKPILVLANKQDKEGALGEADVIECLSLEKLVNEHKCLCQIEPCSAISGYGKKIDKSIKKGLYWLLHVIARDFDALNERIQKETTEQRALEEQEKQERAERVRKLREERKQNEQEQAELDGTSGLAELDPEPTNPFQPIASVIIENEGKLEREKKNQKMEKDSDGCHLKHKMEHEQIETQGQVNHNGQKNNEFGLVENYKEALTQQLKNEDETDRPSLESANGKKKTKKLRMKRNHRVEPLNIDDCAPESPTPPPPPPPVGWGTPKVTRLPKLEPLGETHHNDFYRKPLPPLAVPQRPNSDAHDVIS
UniProt P20700: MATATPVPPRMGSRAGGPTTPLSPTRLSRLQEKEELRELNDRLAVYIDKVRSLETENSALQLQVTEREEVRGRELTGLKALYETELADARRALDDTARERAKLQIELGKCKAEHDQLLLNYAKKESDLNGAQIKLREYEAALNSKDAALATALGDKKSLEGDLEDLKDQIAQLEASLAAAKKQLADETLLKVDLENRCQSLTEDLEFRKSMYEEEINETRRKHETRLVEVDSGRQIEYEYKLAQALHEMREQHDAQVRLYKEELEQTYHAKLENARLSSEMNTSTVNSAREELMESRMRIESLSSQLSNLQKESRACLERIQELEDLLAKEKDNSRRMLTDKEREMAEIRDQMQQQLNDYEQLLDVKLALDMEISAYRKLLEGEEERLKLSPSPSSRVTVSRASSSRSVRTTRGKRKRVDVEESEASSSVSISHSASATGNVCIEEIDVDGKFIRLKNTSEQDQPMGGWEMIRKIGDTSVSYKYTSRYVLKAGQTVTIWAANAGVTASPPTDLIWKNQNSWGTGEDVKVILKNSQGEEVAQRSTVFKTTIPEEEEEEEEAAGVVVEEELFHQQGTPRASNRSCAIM

Target: polycystin-1 (human (endogenous in NHPTK)) (UniProt P98161)
Test: proximity ligation; Duolink PLA in fixed NHPTK RECs with antibodies to the endogenous proteins; non-starved cells (PC1+ARL13B also in ciliated cells); PLA signal per cell

Substance	binding
ARL13B (from UniProt Q3SXY8 1-428)	binds
LAMINB1 (from UniProt P20700 1-586)	no binding
